From paper PMC5897347 come the findings set out here.

Protein sequences, listed by entry. Tags and fused reporters are not part of them.
UniProt Q99873: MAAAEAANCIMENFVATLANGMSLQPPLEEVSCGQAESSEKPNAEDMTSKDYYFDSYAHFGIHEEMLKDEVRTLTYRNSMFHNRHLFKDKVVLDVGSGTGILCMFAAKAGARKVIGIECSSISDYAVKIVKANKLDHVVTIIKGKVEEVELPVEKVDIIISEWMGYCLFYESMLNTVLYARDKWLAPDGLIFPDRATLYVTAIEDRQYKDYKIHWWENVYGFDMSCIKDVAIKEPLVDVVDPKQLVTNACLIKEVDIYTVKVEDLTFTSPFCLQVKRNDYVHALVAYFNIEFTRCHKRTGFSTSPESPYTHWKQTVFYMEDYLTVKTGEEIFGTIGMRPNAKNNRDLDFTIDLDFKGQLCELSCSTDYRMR
UniProt Q9JIF0: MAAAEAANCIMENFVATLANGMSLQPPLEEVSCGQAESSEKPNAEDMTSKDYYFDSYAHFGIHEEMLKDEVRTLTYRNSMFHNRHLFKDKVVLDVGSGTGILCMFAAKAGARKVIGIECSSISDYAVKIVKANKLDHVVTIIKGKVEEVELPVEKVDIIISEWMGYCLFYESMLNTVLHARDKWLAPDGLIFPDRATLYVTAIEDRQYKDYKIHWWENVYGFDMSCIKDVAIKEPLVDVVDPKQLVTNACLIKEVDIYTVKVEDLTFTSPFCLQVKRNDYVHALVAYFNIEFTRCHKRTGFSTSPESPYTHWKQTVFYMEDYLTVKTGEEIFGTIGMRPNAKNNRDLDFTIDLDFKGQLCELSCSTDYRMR
UniProt Q99684: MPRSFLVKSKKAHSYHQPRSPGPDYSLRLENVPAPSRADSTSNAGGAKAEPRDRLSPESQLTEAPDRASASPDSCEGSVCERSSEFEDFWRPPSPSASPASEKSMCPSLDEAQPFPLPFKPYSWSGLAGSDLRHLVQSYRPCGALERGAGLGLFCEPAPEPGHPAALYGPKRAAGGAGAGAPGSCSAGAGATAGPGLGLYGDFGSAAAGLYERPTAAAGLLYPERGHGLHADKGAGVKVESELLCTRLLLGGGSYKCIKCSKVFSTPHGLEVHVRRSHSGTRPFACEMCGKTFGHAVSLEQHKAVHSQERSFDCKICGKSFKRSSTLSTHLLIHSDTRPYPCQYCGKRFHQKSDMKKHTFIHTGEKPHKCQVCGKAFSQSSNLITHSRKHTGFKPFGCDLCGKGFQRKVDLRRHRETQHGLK
UniProt Q12888: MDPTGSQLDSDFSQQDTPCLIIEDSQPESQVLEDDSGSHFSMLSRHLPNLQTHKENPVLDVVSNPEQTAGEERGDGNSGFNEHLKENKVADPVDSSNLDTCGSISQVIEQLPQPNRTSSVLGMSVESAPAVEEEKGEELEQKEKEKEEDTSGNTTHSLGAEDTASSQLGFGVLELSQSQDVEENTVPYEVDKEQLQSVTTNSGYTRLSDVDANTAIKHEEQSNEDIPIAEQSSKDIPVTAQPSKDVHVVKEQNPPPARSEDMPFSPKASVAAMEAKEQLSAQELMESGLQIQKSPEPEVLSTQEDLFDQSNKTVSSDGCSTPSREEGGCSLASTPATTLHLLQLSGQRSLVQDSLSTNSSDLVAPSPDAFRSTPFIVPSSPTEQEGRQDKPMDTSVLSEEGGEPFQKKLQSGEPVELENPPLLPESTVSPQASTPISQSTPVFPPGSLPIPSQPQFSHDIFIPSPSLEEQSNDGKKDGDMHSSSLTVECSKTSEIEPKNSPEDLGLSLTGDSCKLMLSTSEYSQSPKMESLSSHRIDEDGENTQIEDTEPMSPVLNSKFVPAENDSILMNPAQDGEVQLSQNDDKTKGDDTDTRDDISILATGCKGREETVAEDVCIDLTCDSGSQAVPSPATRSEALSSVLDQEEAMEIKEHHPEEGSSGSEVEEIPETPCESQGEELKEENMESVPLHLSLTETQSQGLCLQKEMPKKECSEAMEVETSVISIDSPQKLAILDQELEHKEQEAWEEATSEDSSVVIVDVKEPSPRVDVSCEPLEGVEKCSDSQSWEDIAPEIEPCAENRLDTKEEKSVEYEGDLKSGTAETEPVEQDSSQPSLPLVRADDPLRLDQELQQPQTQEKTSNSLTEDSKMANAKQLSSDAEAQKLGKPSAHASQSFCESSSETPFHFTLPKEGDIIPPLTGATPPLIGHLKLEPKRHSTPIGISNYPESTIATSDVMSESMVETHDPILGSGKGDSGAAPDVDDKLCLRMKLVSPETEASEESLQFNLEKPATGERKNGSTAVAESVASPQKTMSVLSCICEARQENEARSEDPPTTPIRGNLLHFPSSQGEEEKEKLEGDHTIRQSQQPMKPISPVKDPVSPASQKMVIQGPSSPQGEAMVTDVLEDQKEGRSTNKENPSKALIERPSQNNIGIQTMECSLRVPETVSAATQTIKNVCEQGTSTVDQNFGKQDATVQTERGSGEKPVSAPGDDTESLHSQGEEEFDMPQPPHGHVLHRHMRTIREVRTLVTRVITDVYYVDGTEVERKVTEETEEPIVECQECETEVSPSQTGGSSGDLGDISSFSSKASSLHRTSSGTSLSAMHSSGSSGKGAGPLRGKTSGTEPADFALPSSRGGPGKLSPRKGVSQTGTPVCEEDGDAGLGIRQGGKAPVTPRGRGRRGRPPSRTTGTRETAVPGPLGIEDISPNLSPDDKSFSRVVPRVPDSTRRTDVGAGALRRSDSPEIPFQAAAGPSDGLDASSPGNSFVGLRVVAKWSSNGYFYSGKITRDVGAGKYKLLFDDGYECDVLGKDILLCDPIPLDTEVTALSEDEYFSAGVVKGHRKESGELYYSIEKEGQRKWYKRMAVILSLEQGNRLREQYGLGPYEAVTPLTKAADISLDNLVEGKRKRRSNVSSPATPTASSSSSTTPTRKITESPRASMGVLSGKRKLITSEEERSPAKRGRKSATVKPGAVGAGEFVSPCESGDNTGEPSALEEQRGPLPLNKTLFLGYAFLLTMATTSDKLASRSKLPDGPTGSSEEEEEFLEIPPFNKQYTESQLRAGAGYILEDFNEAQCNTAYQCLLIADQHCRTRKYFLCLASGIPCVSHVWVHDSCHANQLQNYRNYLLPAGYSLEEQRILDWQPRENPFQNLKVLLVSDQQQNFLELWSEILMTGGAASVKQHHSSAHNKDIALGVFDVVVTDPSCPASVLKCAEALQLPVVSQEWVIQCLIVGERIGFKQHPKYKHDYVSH
UniProt P70399: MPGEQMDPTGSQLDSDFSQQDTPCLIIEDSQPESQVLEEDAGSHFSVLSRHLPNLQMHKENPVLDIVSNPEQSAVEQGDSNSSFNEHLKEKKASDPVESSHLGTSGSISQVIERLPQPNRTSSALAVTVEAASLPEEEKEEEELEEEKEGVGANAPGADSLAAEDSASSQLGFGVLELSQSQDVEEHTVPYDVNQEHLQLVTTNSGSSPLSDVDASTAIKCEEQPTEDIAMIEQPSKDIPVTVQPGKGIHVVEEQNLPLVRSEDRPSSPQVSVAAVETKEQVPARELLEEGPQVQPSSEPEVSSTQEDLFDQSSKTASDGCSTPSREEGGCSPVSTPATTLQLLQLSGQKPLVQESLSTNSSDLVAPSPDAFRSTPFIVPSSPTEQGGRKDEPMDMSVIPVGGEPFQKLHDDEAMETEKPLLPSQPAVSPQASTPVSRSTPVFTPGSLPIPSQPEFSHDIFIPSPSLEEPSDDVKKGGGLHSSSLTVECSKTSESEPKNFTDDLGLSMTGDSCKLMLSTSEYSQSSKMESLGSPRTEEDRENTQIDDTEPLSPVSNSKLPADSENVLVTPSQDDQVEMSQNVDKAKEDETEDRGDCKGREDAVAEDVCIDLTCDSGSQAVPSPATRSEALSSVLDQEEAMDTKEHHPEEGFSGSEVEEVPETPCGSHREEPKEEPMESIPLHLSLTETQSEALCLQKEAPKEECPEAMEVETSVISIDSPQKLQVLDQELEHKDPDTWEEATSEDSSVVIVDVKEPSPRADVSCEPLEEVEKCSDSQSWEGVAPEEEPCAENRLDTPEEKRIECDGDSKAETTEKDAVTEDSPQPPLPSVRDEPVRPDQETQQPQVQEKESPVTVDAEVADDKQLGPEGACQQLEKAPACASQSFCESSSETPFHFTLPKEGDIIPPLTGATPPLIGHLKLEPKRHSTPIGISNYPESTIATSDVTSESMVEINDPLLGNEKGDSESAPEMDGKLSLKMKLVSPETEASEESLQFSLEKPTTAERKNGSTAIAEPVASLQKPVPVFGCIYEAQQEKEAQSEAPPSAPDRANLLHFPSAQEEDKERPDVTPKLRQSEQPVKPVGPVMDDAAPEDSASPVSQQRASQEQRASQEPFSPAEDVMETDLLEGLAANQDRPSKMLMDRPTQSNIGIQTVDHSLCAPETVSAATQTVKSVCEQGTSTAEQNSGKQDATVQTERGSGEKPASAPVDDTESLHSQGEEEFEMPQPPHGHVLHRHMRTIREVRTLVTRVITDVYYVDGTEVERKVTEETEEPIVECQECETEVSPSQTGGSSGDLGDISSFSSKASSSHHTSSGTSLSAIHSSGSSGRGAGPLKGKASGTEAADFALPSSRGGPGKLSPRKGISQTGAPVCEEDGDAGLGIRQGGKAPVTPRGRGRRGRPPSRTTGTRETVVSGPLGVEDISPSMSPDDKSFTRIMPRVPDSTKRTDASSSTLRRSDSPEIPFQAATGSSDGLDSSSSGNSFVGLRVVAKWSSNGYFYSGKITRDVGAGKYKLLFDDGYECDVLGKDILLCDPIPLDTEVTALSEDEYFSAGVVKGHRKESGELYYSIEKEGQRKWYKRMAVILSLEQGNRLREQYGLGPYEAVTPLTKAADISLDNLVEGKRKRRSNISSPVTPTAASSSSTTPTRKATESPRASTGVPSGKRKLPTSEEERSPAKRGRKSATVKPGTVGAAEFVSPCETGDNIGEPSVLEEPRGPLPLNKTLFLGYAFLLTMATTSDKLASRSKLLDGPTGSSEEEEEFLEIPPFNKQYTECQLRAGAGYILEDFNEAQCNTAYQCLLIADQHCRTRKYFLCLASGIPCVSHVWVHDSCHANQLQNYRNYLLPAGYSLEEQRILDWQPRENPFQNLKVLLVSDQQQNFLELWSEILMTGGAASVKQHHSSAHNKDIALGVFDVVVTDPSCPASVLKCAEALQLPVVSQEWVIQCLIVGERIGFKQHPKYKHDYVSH

No constants are given. Whether binding was seen depends on the method and setting. Binding seen in cells or lysates may run through a third protein. Some results given as binding are weak or reduced against the parent protein; the word gives no strength.

Assay [1] has as its target Protein arginine methyltransferase 1 (PRMT1) (human (endogenous in 293T, SupT1, Jurkat)) (UniProt Q99873). Put plainly: co-IP; Jurkat cells, parental and GFI1-deficient (Supplementary Fig. 7a-d); PRMT1 with MRE11 and 53BP1.
In assay [2] the target is PRMT1 (mouse thymocytes) (mouse (endogenous in thymocytes)) (UniProt Q9JIF0). Put plainly: co-IP; nuclear extracts of thymocytes of Gfi1 WT mice; PRMT1 immunoprecipitated and blotted for MRE11, and MRE11 immunoprecipitated and blotted for PRMT1; PRMT1 with 53BP1 likewise (compared with Gfi1 KO).
In assay [3] the target is GFI1 (endogenous, human T-cell lines) (human (endogenous in SupT1, Jurkat)) (UniProt Q99684). Put plainly: co-IP; endogenous GFI1 immunoprecipitated from non-transfected SupT1 and Jurkat cells, blotted for MRE11 and PRMT1.
Assay [4] deals with GFI1-Flag fusion protein (full length GFI1) (UniProt Q99684). Put plainly: co-IP; GFI1-Flag and its variants immunoprecipitated from 293T cells, blotted for endogenous proteins; also in the presence or absence of benzonase and at times after 5 Gy IR.

In the case of “53BP1 (Jurkat cells) (from UniProt Q12888 1-1972)”, the binding result in assay [1] is reported as “binds”.

Take “53BP1 (mouse thymocytes) (from UniProt P70399 1-1969)”: the binding result in assay [2] is recorded as “binds”.

With “Protein arginine methyltransferase 1 (PRMT1) (from UniProt Q99873 1-371) (enzyme)”, the binding result in assay [3] and in assay [4] was “binds” throughout.
